## Library screening results

By UniProt entry, the sequences of proteins in these tests, tags left out.
UniProt E9BF75, entry or part of it: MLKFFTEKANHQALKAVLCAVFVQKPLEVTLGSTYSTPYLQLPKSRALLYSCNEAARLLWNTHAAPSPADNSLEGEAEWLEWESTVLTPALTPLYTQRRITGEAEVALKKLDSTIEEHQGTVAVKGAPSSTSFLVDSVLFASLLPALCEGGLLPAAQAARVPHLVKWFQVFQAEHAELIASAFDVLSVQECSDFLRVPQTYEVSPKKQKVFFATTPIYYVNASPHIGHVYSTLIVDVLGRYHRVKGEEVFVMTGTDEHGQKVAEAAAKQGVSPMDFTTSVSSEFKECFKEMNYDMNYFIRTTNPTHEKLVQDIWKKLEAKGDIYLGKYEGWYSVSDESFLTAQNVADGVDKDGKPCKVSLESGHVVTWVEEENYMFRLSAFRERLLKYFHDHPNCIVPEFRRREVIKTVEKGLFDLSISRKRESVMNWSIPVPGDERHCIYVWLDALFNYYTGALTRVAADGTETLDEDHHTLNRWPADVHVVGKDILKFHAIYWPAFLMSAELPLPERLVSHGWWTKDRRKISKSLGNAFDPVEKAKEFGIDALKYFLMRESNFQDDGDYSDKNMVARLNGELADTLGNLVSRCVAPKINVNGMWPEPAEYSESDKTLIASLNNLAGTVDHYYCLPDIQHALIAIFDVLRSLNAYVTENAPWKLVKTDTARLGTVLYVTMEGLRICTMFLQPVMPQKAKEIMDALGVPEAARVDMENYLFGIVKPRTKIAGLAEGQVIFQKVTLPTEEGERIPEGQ

The values are deposited in ChEMBL (CHEMBL3988442, “University of Dundee, Small-Polar-MMV Screening Library” (2021)).

LdMetRS: 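Primary screen of methionyl-tRNA synthetase; the read-out is not stated. Target: Methionyl-tRNA synthetase (putative), Leishmania donovani (UniProt E9BF75). The test concentration is not given. The values are filed as inhibition. About 68,000 compounds were tested under these conditions; 0.035% (about 24) showed 50% or more at least once.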
Mtb heat-shock: 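Assay on Mycobacterium tuberculosis, filed only as a heat shock assay from Cornell; the read-out is not stated. The concentration is filed as 10 mM, unlikely as a test dose, so the dose is not known. Higher reads as stronger inhibition (inferred: compounds with an IC50 in retests scored well above the rest). Size under these conditions: about 69,000 compounds, about 930 of them at 50% or above in at least one test.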

All values are in %.
The controls that fix the scale are not given in the record; negative values are as filed.
This is an unselected part of the compounds tested.
A dash means the value is not listed here; it may have been measured.

CC(C)n1ncc2c1NC(=O)C(C#N)C21CCCC1 (stereo not given) gave LdMetRS: 8.011%; Mtb heat-shock: 10.82%.
Cc1oc(-c2ccc(F)cc2F)nc1CN1C[C@@H](C)O[C@@H](C)C1 gave LdMetRS: -0.2564%; Mtb heat-shock: -10.16%.
CC(Cc1ccccn1)N(C)C(=O)c1ncc[nH]1 (stereo not given) gave LdMetRS: 0.7792%; Mtb heat-shock: 1.952%.
COCc1nc(C(=O)OCC2CCN(c3ccccc3)C2)cs1 (stereo not given) gave LdMetRS: 20.36%; Mtb heat-shock: 4.287%.
Cc1nc(N2CCCC2)nc2c1CCN(C(=O)C1CCCC1)CC2 gave LdMetRS: 22.82%; Mtb heat-shock: 9.52%.
O=C1CC(c2ccncc2)C2(CCN(Cc3ccc(F)cc3)CC2)N1 (stereo not given) gave LdMetRS: 6.536%.
OCC1CCCN1c1cc(N2CCc3ccccc3C2)ncn1 (stereo not given) gave LdMetRS: 8.333%; Mtb heat-shock: -13.93%.
CN1CCC(N(Cc2ccco2)S(=O)(=O)c2ccc(Br)cc2Cl)CC1 gave LdMetRS: 6.959%; Mtb heat-shock: 7.364%.
C/C=C(\C)CN(CCN1CCOCC1)Cc1ccco1 gave LdMetRS: 19.06%; Mtb heat-shock: -13.23%.
Cc1cccc(N2CCc3ncc(CNc4ccccn4)n3CC2)n1 gave LdMetRS: 15.74%.
Cc1sc(NC(=O)CN(C)CCOc2cccc(F)c2)c(C)c1C gave LdMetRS: 20.53%; Mtb heat-shock: 3.214%.
CC(C)CCN(C)C(=O)c1cnc2c(cnn2CC(C)C)c1 gave LdMetRS: 5.498%; Mtb heat-shock: -0.1137%.
Cc1nccc(-c2ccccc2)c1C(=O)N1CC[C@](C)(O)C(C)(C)C1 gave LdMetRS: 13.17%; Mtb heat-shock: 16.87%.
Cc1noc(C)c1CN1CCCC1C(=O)OCc1ccccc1 (stereo not given) gave LdMetRS: 12.63%; Mtb heat-shock: -35.12%.
COCCO[C@H]1CCN(C(=O)c2cccnc2)[C@H]1Cc1cnn(C)c1.O=C(O)C(F)(F)F gave Mtb heat-shock: 8.353%.
[H][C@@]12CS(=O)(=O)C[C@]1([H])N(C(=O)CCC(F)(F)F)CCN2Cc1[nH]cnc1C gave Mtb heat-shock: 2.803%.
Cc1nsc(C(=O)NCCc2ccc(Cl)cc2)n1 gave LdMetRS: 6.497%; Mtb heat-shock: 33.83%.
Cc1ccoc1C(=O)N1CC[C@H]2[C@@H]1CCC(=O)N2c1cccnc1 gave LdMetRS: 14.29%.
NC(=O)CN1CCC(NC(=O)COCCOc2ccccc2)CC1 gave LdMetRS: 13.96%; Mtb heat-shock: 15.28%.
CC(CN1CCCC1=O)NC(=O)NCc1ccccc1-n1cccn1 (stereo not given) gave LdMetRS: 10.78%; Mtb heat-shock: 4.632%.
CC(C)Cc1cc(C(=O)N2CCC[C@H]2C(=O)N2CCOCC2)on1 gave LdMetRS: 10.56%; Mtb heat-shock: 6.536%.
CS(=O)(=O)N1CCCC12CCCN(C(=O)c1ccncc1)C2 (stereo not given) gave LdMetRS: 7.216%; Mtb heat-shock: -15.81%.
O=C(c1ccc(OCC2CC2)nc1)N1CCCC(n2cccn2)C1 (stereo not given) gave LdMetRS: 13.22%; Mtb heat-shock: 2.977%.
CCc1ncncc1C(=O)NCCN1CCC(C)CC1 gave LdMetRS: 7.965%; Mtb heat-shock: 4.768%.
O=C(CCC(=O)N1CCC(Oc2ncccc2Br)CC1)c1ccccc1 gave LdMetRS: 5.072%; Mtb heat-shock: 1.622%.
O=C1CC[C@]2(CC[C@@H](NC(=O)NCc3ccccc3)CC2)N1 gave LdMetRS: 4.482%; Mtb heat-shock: -26.23%.
O=C(O)C(F)(F)F.c1cncc(N2CCC3(CCCN(c4ccncc4)C3)CC2)c1 gave Mtb heat-shock: -20.24%.
Cc1cnc(NC(=O)N2CCCC2)s1 gave LdMetRS: 7.063%; Mtb heat-shock: 3.684%.
O=C(O)C(F)(F)F.[H][C@@]12CN(C(=O)c3ccco3)C[C@]1([H])C(=O)N(Cc1csc(C)n1)C2 gave Mtb heat-shock: -6.298%.
Cc1ccc(C)c(CSc2nnc(C(N)Cc3ccccc3)o2)c1 (stereo not given) gave LdMetRS: 21.73%.
Cc1nc(NC(=O)COCC(F)(F)F)ccc1Br gave LdMetRS: 8.078%; Mtb heat-shock: 4.264%.
O=C(Nc1ccc2c(c1)C(=O)NC2=O)c1ccc(Cl)s1 gave LdMetRS: -4.237%; Mtb heat-shock: -7.325%.
N#CC1(NC(=O)Cn2nnc(-c3cc4ccccc4o3)n2)CCCC1 gave LdMetRS: 19.78%; Mtb heat-shock: 5.477%.
Cc1ccc(Cl)cc1-n1nnnc1C1(N2CCCC2)CCCCC1 gave LdMetRS: 7.035%; Mtb heat-shock: 11.85%.
CN(C)c1nccc(C2CCN(C(=O)CO)CC2)n1 gave LdMetRS: 0.6452%; Mtb heat-shock: 7.195%.
CC(=O)N1CCN(c2ccccc2CNc2cncc(C)c2)CC1 gave LdMetRS: 5.85%; Mtb heat-shock: -5.666%.
COc1ccc(CCCC(=O)NCc2c(C)noc2C)cc1F gave LdMetRS: 7.494%; Mtb heat-shock: -13.36%.
CCN(CC1CCOC1)C(=O)Nc1ccc(N2CCCCC2)nc1 (stereo not given) gave LdMetRS: 21.7%; Mtb heat-shock: 15.9%.
Cc1cc(NC(=O)C(C)N2CCN(c3ccccc3F)CC2)no1 (stereo not given) gave LdMetRS: 9.296%; Mtb heat-shock: 4.649%.
Cn1cc(NS(=O)(=O)CCOc2ccc(F)cc2)cn1 gave LdMetRS: 14.74%; Mtb heat-shock: 16.15%.
Cc1ccc(C(=O)NS(=O)(=O)c2ccccc2C)c(=O)[nH]1 gave LdMetRS: 17.46%; Mtb heat-shock: 9.215%.
Cc1noc(C)c1-c1cc(C2CCNCC2)ccn1 gave LdMetRS: 5.161%; Mtb heat-shock: 21.14%.
CN1CCN(c2cc(CNC(=O)c3ccc(=O)n(C)c3)ccn2)CC1 gave LdMetRS: 9.816%; Mtb heat-shock: 10.4%.

Some entries from above, unchanged:

Compound,LdMetRS,Mtb heat-shock
CN1CCN(c2cc(CNC(=O)c3ccc(=O)n(C)c3)ccn2)CC1,9.816,10.4
Cc1cccc(N2CCc3ncc(CNc4ccccn4)n3CC2)n1,15.74,-
CC(C)n1ncc2c1NC(=O)C(C#N)C21CCCC1 (stereo not given),8.011,10.82